Laboratory results reported in US6949383B2 (priority 1998, dated 2005).
At least one structure is not confirmed: it was looked up by name or label, or the drawing left a doubt.

System: dnaQ+ strain (wild type)
Type: cell-based, Escherichia coli

Q: Which “Growth of dnaQ+ strain (wild type) in the presence of drug” value does the source give for `CC1COc2c(N3CCN(C)CC3)c(F)cc3c(=O)c(C(=O)O)cn1c23` (stereo not shown) [Ofloxacin] here?
A: *3) dnaQ+ strain (wild type) did not grow in the presence of 0.1 μg/ml of ofloxacin.
